In PubChem BioAssay AID1645875 (National Center for Advancing Translational Sciences (NCATS), 2021):
Inconclusive means that the source gave no clear call. Where the call is inconclusive, the potency comes from a doubtful curve fit.

The chains behind the UniProt entries cited, without tags or fusion partners. Where a name states a change or a piece, a line headed by the entry shows the natural chain unless it says otherwise.
UniProt Q9BV86: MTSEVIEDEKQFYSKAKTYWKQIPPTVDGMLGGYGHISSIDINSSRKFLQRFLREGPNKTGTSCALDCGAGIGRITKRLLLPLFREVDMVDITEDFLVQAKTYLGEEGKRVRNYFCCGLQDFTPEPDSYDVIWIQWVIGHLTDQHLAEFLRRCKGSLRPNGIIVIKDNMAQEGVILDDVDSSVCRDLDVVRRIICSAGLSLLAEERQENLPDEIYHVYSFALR

Target: N-terminal Xaa-Pro-Lys N-methyltransferase 1 (Homo sapiens) (UniProt Q9BV86)
Assay: Orthogonal qHTS for Inhibitors of N-terminal methyltransferase 1 (NTMT1): ThioGlo Assay
Details: NTMT1 SAHH-coupled ThioGlo fluorescence, 30 min; active = well fitted inhibition curve with a large enough effect; inconclusive = small, poorly fitted or top-dose-only effect; inactive = no such curve, though single readings can be large or run the other way
Excerpt: Assay Submitter (PI): Rong Huang Ph.D. Purdue University, West Lafayette, IN 47907 The N-terminal methytransferase 1 is the first methyltransferase that methylates protein alpha-N-amines and plays an important role in regulating cell mitosis, chromatin interactions and DNA repair. It is observed to be over-expressed in various cancer patient tissues like malignant melanoma and colorectal cancer tissues. Knockdown of NTMT1 in cancer cells causes cell mitotic defects and enhances sensitivity to DNA damaging chemotherapeutics. […] To address this unmet need, a panel of assay is created and established to enable quantitative high-throughput screening (qHTS) for novel, potent, and selective small molecule NTMT1 inhibitors. […]
Materials: NTMT1 enzyme, substrate SPKRIA, control peptide RCC1-6 is provided by the Huang laboratory. […] 5; Detection; Fluorescence; Initial fluorescence readout (background signal) was detected using the ViewLux microplate imager with an excitation filter of 340 nm and 450 nm emission filter. […] 7; Detection; Fluorescence; Final fluorescence readout was detected using the ViewLux microplate imager with an excitation filter of 340 nm and 450 nm emission filter. The data was normalized to the background fluorescence.

| SMILES | Potency |
| --- | --- |
| CC(C)(C)c1cc(C=C(C#N)C#N)cc(C(C)(C)C)c1O | inconclusive: 1.09 µM [inhibitor, full curve] |
| NC(N)=Nc1ccc2[nH]c3c(c2c1)C[C@@]1(O)[C@H]2Cc4ccc(O)c5c4[C@@]1(CCN2CC1CC1)[C@H]3O5 | inconclusive: 30.8 µM [inhibitor, partial curve] |
